Reference: paper PMC7962252
No constants are given. Whether binding was seen depends on the method and setting. Binding seen in cells or lysates may run through a third protein. Some results given as binding are weak or reduced against the parent protein; the word gives no strength.

Sequences of proteins named here, by UniProt entry; tags and fusion partners are left off. Residues count along the entry.
UniProt Q7L576: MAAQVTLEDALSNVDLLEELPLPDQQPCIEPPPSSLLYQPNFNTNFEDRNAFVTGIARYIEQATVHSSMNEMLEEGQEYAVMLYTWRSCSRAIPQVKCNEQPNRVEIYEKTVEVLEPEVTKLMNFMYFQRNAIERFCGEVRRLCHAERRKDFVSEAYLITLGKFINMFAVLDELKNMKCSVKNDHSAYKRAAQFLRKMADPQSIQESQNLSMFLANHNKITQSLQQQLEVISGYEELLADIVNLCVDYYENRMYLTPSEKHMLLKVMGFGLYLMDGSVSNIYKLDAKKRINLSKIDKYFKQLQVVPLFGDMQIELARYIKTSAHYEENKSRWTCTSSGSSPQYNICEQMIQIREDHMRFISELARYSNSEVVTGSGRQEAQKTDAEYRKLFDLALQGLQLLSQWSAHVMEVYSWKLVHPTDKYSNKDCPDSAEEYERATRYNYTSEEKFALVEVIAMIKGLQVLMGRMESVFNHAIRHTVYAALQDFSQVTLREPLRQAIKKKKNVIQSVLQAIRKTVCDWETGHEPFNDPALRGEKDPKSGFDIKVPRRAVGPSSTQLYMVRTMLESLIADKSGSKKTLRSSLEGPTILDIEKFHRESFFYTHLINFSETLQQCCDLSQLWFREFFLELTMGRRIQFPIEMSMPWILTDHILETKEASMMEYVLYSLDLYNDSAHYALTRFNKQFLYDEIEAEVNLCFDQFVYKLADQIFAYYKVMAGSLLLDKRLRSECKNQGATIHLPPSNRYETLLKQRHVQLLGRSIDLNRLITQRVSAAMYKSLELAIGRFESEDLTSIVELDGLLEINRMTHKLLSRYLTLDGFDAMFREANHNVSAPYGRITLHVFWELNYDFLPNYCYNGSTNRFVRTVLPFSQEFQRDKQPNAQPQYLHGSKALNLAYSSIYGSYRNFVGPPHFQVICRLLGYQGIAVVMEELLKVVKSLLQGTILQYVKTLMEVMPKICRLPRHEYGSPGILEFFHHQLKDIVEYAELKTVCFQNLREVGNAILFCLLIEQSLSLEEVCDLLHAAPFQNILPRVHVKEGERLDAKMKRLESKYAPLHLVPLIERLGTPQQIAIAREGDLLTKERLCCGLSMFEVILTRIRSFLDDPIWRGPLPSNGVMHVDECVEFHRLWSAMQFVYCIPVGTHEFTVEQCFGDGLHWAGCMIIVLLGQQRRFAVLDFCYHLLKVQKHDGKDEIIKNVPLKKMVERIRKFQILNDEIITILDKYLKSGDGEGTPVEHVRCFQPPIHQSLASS
UniProt Q9Y2A7: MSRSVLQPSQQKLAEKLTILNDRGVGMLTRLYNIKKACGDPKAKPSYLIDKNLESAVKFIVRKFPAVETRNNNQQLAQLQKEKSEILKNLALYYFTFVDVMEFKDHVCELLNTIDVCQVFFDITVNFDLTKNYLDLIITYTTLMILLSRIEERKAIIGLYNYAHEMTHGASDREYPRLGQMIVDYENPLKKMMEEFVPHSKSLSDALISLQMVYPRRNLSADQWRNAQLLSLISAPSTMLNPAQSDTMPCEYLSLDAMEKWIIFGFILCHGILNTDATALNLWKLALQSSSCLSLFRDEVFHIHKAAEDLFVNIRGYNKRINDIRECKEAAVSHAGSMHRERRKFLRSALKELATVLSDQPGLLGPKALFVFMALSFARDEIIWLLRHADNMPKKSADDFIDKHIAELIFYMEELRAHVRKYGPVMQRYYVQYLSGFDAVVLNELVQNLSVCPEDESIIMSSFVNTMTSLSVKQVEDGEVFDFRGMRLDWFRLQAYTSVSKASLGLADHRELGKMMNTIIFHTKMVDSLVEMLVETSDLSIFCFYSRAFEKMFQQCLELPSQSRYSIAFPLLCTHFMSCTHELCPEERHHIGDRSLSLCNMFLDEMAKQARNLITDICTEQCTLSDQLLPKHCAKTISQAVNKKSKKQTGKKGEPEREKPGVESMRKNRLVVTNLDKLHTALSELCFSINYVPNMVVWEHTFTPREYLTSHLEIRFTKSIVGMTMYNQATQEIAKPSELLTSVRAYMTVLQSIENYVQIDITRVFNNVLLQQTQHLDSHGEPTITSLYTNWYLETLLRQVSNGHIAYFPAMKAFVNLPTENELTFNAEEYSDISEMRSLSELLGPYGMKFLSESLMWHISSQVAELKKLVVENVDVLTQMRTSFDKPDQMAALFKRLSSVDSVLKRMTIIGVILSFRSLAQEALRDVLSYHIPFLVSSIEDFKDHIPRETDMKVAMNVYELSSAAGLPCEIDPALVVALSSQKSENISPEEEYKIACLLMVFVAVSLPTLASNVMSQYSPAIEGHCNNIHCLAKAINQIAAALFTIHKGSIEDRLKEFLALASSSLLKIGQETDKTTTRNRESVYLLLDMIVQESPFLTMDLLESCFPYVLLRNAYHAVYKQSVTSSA
UniProt Q14C87, residues 31-1099: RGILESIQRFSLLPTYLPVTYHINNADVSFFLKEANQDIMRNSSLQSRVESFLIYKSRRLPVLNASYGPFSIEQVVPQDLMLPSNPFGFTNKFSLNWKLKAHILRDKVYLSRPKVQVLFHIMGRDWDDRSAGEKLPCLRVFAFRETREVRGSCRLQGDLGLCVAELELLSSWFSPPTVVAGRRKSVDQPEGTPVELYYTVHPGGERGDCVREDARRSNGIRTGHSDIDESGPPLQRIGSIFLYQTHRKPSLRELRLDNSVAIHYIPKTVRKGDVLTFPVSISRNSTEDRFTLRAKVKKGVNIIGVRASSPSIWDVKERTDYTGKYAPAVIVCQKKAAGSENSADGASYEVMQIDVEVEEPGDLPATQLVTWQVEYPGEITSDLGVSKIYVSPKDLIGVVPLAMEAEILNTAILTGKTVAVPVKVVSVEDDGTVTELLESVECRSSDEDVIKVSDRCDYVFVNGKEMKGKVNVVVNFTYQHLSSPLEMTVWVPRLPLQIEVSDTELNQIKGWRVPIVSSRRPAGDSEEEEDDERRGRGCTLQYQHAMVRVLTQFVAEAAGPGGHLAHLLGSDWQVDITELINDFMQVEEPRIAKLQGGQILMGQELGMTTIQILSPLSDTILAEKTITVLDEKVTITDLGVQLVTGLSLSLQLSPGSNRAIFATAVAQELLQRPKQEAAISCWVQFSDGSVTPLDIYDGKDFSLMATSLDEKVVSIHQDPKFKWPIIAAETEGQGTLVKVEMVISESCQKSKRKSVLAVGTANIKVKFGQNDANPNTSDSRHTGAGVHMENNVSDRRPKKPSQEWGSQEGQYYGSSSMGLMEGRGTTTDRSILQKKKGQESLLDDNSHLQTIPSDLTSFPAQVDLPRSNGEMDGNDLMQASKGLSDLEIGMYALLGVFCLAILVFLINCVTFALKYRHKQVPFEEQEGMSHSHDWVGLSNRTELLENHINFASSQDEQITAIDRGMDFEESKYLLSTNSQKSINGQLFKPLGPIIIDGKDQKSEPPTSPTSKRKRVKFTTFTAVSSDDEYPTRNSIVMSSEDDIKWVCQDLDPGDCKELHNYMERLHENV

Tests used:
GFP-tagged SRA1 = GFP-tagged SRA1 (UniProt Q7L576); test: co-IP; TMEM132D-V5 (or mutants) and GFP-tagged WRC components co-transfected in HEK293 cells; lysate on GFP-Trap beads 4 °C 2 h, five washes with lysis buffer; blot with antibodies against V5 and GFP
[1] = biological target: GFP-tagged full-length NAP1 (human) (UniProt Q9Y2A7); test: as above

- binding (GFP-tagged SRA1): binds
- binding [1]: binds
Substance: V5 epitope-tagged human TMEM132D (from UniProt Q14C87 31-1099)
